Assay results from article doi:10.1101/2025.07.10.664251.
No constants are given. Whether binding was seen depends on the method and setting. Binding can be weak; no strength is given.

Biological target: human recombinant insulin (human)
Assay: ELISA

binding: binds
B1: RA32 antibody (antibody, V domains shown)
VH: QVQLRQPGIELAKSGTSVKLSCKASGFTFTSYWMHWVRQRPGQGLEWIGHINPNKDGINFNERFKTKATLTVDRSSATAFMQLSSLTSADSAVYYCARWGPGYFDYWGQGTTLTVSS
VL: DLVLTQSPASVAVSPGQRATISCRVSESIDNFGISFMNWFQQKPGQPPKLLIYFASKQGSGVPARFTGSGSGTNFSLNIHPMEEDDTAMYFCQQSKEVPYTFGGGTKLEIK
